Values from PubChem BioAssay AID1508597 (Cure First, 2020).

Screen: 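Survival screen with siRNA in ovarian cancer cells derived from patients, with or without rucaparib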 (primary screen)
Cell system: human ovarian carcinoma lines grown from tumours: OCI-P5x (papillary serous) and OCI-C5x (clear cell)
Reagent: siRNA pool against human genes, 1.25 pmol siRNA per well
Timing: 72 h or 96 h, depending on the cell culture
Challenge: rucaparib 20 µM (about IC30) or vehicle, present until read-out
Rucaparib or vehicle: Rucaparib
Cell line: OCI-P5x (serous)
Measured: 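ATP luminescence measured at 72 or 96 h according to the culture, then normalised and expressed as percent viability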
Reading the numbers: viability, normalised: higher = more viable cells remaining
Hit rule: 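a well counts as a hit if its normalised viability is under 80 percent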
Meaning of the calls: active = viability under 80%; inactive = viability 80% or more
Shown is a random part of the about 2,100 reagents, in one setting of the screen. 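Calls flag viability under 80% in either arm, not effects specific to rucaparib; the reference for percent is not stated.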 A number with no mark means an inactive call. Some reagents were tested in more than one well and are listed for each. No sequences are given here. Not stated in the record: the 100% reference.

| gene | technical replicate | viability, normalised (%) |
| --- | --- | --- |
| MAT2A (methionine adenosyltransferase 2A) | 1 | 56.4 (active) |
| MAT2A (methionine adenosyltransferase 2A) | 2 | 64.2 (active) |
| MAT2A (methionine adenosyltransferase 2A) | 3 | 66.8 (active) |
| TCF3 (transcription factor 3) | 1 | 58.7 (active) |
| TCF3 (transcription factor 3) | 2 | 64.3 (active) |
| TCF3 (transcription factor 3) | 3 | 65.1 (active) |
| PHF13 (PHD finger protein 13) | 1 | 39.2 (active) |
| PHF13 (PHD finger protein 13) | 2 | 40.6 (active) |
| PHF13 (PHD finger protein 13) | 3 | 43.4 (active) |
| CLDN2 (claudin 2) | 1 | 65.9 (active) |
| CLDN2 (claudin 2) | 2 | 59.5 (active) |
| CLDN2 (claudin 2) | 3 | 59.9 (active) |
| NME1-NME2 (NME1-NME2 readthrough) | 1 | 107 |
| NME1-NME2 (NME1-NME2 readthrough) | 2 | 80.1 |
| NME1-NME2 (NME1-NME2 readthrough) | 3 | 107 |
| NTRK2 (neurotrophic receptor tyrosine kinase 2) | 1 | 97.5 |
| NTRK2 (neurotrophic receptor tyrosine kinase 2) | 2 | 89.6 |
| NTRK2 (neurotrophic receptor tyrosine kinase 2) | 3 | 91.1 |
| IRAK4 (interleukin 1 receptor associated kinase 4) | 1 | 86.9 |
| IRAK4 (interleukin 1 receptor associated kinase 4) | 2 | 72.4 (active) |
| IRAK4 (interleukin 1 receptor associated kinase 4) | 3 | 50.4 (active) |

Part of the list above, set out differently:
gene | technical replicate | viability, normalised (%)
CLDN2 (claudin 2) | 3 | 59.9 (active)
NME1-NME2 (NME1-NME2 readthrough) | 1 | 107
NME1-NME2 (NME1-NME2 readthrough) | 2 | 80.1
NME1-NME2 (NME1-NME2 readthrough) | 3 | 107
NTRK2 (neurotrophic receptor tyrosine kinase 2) | 1 | 97.5
NTRK2 (neurotrophic receptor tyrosine kinase 2) | 2 | 89.6
NTRK2 (neurotrophic receptor tyrosine kinase 2) | 3 | 91.1

Next results follow.
| gene | technical replicate | viability, normalised (%) |
| --- | --- | --- |
| TERT (telomerase reverse transcriptase) | 1 | 70.2 (active) |
| TERT (telomerase reverse transcriptase) | 2 | 88 |
| TERT (telomerase reverse transcriptase) | 3 | 71.3 (active) |
| HELLS (helicase, lymphoid specific) | 1 | 73.9 (active) |
| HELLS (helicase, lymphoid specific) | 2 | 70.5 (active) |
| HELLS (helicase, lymphoid specific) | 3 | 78.1 (active) |
| HK3 (hexokinase 3) | 1 | 69.7 (active) |
| HK3 (hexokinase 3) | 2 | 56.1 (active) |
| HK3 (hexokinase 3) | 3 | 55.3 (active) |
| EPHA1 (EPH receptor A1) | 1 | 99.8 |
| EPHA1 (EPH receptor A1) | 2 | 89 |
| EPHA1 (EPH receptor A1) | 3 | 96.5 |
| LRRK1 (leucine rich repeat kinase 1) | 1 | 84.8 |
| LRRK1 (leucine rich repeat kinase 1) | 2 | 79.4 (active) |
| LRRK1 (leucine rich repeat kinase 1) | 3 | 74.5 (active) |
| CACNA1G (calcium voltage-gated channel subunit alpha1 G) | 1 | 105 |
| CACNA1G (calcium voltage-gated channel subunit alpha1 G) | 2 | 99.1 |
| CACNA1G (calcium voltage-gated channel subunit alpha1 G) | 3 | 83.3 |
| ATR (ATR checkpoint kinase) | 1 | 91.8 |
| ATR (ATR checkpoint kinase) | 1 | 86.9 |
| ATR (ATR checkpoint kinase) | 2 | 78 (active) |
| ATR (ATR checkpoint kinase) | 2 | 85.2 |
| ATR (ATR checkpoint kinase) | 3 | 74.8 (active) |
| ATR (ATR checkpoint kinase) | 3 | 66.8 (active) |
| NODAL (nodal growth differentiation factor) | 1 | 52.4 (active) |
| NODAL (nodal growth differentiation factor) | 2 | 62 (active) |
| NODAL (nodal growth differentiation factor) | 3 | 60.7 (active) |
| CAMK1 (calcium/calmodulin dependent protein kinase I) | 1 | 90 |
| CAMK1 (calcium/calmodulin dependent protein kinase I) | 2 | 87.4 |
| CAMK1 (calcium/calmodulin dependent protein kinase I) | 3 | 86.1 |
| YTHDC2 (YTH N6-methyladenosine RNA binding protein C2) | 1 | 91.5 |
| YTHDC2 (YTH N6-methyladenosine RNA binding protein C2) | 2 | 83.5 |
| YTHDC2 (YTH N6-methyladenosine RNA binding protein C2) | 3 | 53 (active) |
| TSSK3 (testis specific serine kinase 3) | 1 | 114 |
| TSSK3 (testis specific serine kinase 3) | 2 | 88.5 |
| TSSK3 (testis specific serine kinase 3) | 3 | 113 |
